# According to patent US10806795B2 (Hoffmann-La Roche Inc., priority 2014, dated 2020):
# Assay: general procedure: Fmoc solid-phase peptide synthesis; TentaGel S RAM (0.25 mmol/g); TentaGel RAM (0.18 mmol/g); TBTU or HATU with NMM; HBTU/HOBt with DIPEA
# Conditions: conjugation step
row,Substance,conjugation yield
1,PEG2-IK(PEG3-Cys-4Abu-Dig)-Pqa-RHYLNWVTRQ-MeArg-Y-NH2,25%
2,"PEPTIDE1{[ac].I.K.[Pqa].R.H.Y.L.N.W.V.T.R.Q.[NMeArg].Y.[am]}|PEPTIDE2{[Dig3cme].[PEG3]}$PEPTIDE1,PEPTIDE2,3:R3-2:R2$$$V2.0",25%

# Some peptides are written in HELM: one residue between dots, names in brackets for other building blocks, links after the first $.
